Reference: PubChem BioAssay AID328 (DTP/NCI, 2004)
The list shows only some results of the screen, not a fair sample: it gathers tests that were run many times, whatever their T/C, doses with no T/C, and many T/C values between a quarter and a half above the control. Further doses and runs are listed elsewhere. T/C: endpoint of the treated group in % of that of the vehicle group. Some entries give survivors of the animals treated and no T/C: the source holds a T/C of zero for them, seemingly a mark for toxic or unscored doses. Some doses without a T/C left all or most animals alive at the check, yet need not have been tolerated: survival well below the control is almost never listed, so the zero probably covers shortened survival too. Survivors were counted at the toxicity check, usually on the fifth day, unless a day is given; later deaths do not show. Schedules are NCI's codes, taken here to give the interval after Q, in days (D) or hours (H), and the number of doses after X. Where survival is the endpoint, the PubChem record calls one and a half times the control and up active, and a quarter to a half above the control has no call in these data; cut-offs in other NCI protocols can differ.

System: BDF1 mice, P388 leukemia ip, median survival T/C
Assay: NCI In Vivo Anticancer Drug Screen. Data for tumor model P388 Leukemia (intraperitoneal) in B6D2F1 (BDF1) mice
Conditions: T/C endpoint: median survival time, higher T/C = longer survival
How it was run: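 Mice carrying the transplantable tumour receive compound or vehicle. Survival is followed in each arm, and the treated measure is divided by the vehicle measure.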

[1] = dose: 100.0 mg/kg/injection, schedule: Q04DX003 (ip), vehicle: saline with Tween-80
[2] = dose: 200.0 mg/kg/injection, schedule: Q04DX003 (ip), vehicle: saline with Tween-80
[3] = dose: 400.0 mg/kg/injection, schedule: Q04DX003 (ip), vehicle: saline with Tween-80
[4] = dose: 200.0 mg/kg/injection, schedule: Q01DX009 (ip), vehicle: Klucel (hydroxypropylcellulose) (HPC)
[5] = dose: 400.0 mg/kg/injection, schedule: Q01DX009 (ip), vehicle: Klucel (hydroxypropylcellulose) (HPC)

O=C(O)c1c(I)c(I)c(I)c(I)c1C(=O)c1ccccc1
T/C [1]: 135 % of control | survivor count (dose: 400.0 mg/kg/injection, schedule: Q01DX009 (ip), vehicle: saline with Tween-80): 2 of 6

Cc1ccc2c(C)c3c(ccc4ccccc43)c[n+]2c1
T/C (dose: 5.0 mg/kg/injection, schedule: Q01DX009 (ip), vehicle: Klucel (hydroxypropylcellulose) (HPC)): 140 % of control | T/C (dose: 5.0 mg/kg/injection, schedule: Q01DX009 (ip), vehicle: saline): 130 % of control | survivor count (dose: 10.0 mg/kg/injection, schedule: Q01DX009 (ip), vehicle: Klucel (hydroxypropylcellulose) (HPC)): 5 of 6 | survivor count (dose: 20.0 mg/kg/injection, schedule: Q01DX009 (ip), vehicle: Klucel (hydroxypropylcellulose) (HPC)): 1 of 6

CCCCCCC(=O)CCCCCCCCCCCCC(=O)OC
survivor count [1]: 6 of 6 | survivor count [2]: 5 of 6 | survivor count [3]: 5 of 6

CC/C(=C(\c1ccccc1)c1ccc(OCCN(C)C)cc1)c1ccccc1
survivor count [4]: 2 of 3 | survivor count [5]: 1 of 3

[Fe+5].[O-][Cl+3]([O-])([O-])O.[O-]c1ccccc1C=NCCN1CC1.[O-]c1ccccc1C=NCCN1CC1
T/C (dose: 25.0 mg/kg/injection, schedule: Q04DX003 (ip), vehicle: saline with Tween-80): 142 % of control | T/C (dose: 50.0 mg/kg/injection, schedule: Q04DX003 (ip), vehicle: saline with Tween-80): 133 % of control | survivor count [2]: 1 of 6 | survivor count [3]: 0 of 6

N#CCc1ccc([N+](=O)[O-])cc1
survivor count (dose: 25.0 mg/kg/injection, schedule: Q01DX009 (ip), vehicle: Klucel (hydroxypropylcellulose) (HPC)): 6 of 6 | survivor count (dose: 50.0 mg/kg/injection, schedule: Q04DX003 (ip), vehicle: Klucel (hydroxypropylcellulose) (HPC)): 3 of 6

O=c1oc2c3ccccc3c3ccccc3c2o1
survivor count [4]: 4 of 6 | survivor count [5]: 0 of 6

CCCCCCCCCCC[N+](C)(C)CC[N+](C)(C)CCCCCCCCCCC
survivor count (dose: 50.0 mg/kg/injection, schedule: Q01DX009 (ip), vehicle: saline with Tween-80): 0 of 6 | survivor count (dose: 100.0 mg/kg/injection, schedule: Q01DX009 (ip), vehicle: saline with Tween-80): 0 of 6 | survivor count (dose: 200.0 mg/kg/injection, schedule: Q01DX009 (ip), vehicle: saline with Tween-80): 0 of 6

O=C(c1ccc(Cl)cc1)c1cccc[n+]1Cc1ccccc1
survivor count (dose: 4.68 mg/kg/injection, schedule: Q01DX009 (ip), vehicle: Klucel (hydroxypropylcellulose) (HPC)): 4 of 6 | survivor count (dose: 75.0 mg/kg/injection, schedule: Q01DX009 (ip), vehicle: Klucel (hydroxypropylcellulose) (HPC)): 2 of 6 | survivor count (dose: 150.0 mg/kg/injection, schedule: Q01DX009 (ip), vehicle: Klucel (hydroxypropylcellulose) (HPC)): 0 of 6 | survivor count (dose: 170.0 mg/kg/injection, schedule: Q04DX003 (ip), vehicle: Klucel (hydroxypropylcellulose) (HPC)): 1 of 6 | survivor count (dose: 255.0 mg/kg/injection, schedule: Q04DX003 (ip), vehicle: Klucel (hydroxypropylcellulose) (HPC)): 0 of 6 | survivor count (dose: 380.0 mg/kg/injection, schedule: Q04DX003 (ip), vehicle: Klucel (hydroxypropylcellulose) (HPC)): 0 of 6

O=[N+]([O-])c1ccc(-n2[nH]nnc2=S)cc1
T/C [2]: 130 % of control

CC(C)CCCCCCCCCCCCC(=O)NCC(=O)NC1C(C)OC(Nc2ncnc3nc[nH]c23)C(O)C1O (stereo not drawn)
T/C (dose: 720.0 micrograms/kg/injection, schedule: Q04DX003 (ip), vehicle: saline): 127 % of control | T/C (dose: 1200.0 micrograms/kg/injection, schedule: Q04DX003 (ip), vehicle: saline): 133 % of control | T/C (dose: 2000.0 micrograms/kg/injection, schedule: Q04DX003 (ip), vehicle: saline): 125 % of control

NC(=S)c1cn(C2OC(CO)C(O)C2O)c2ncnc(N)c12 (stereo not drawn)
survivor count (dose: 7.5 mg/kg/injection, schedule: Q01DX009 (ip), vehicle: saline with Tween-80): 4 of 6
